Article PMC12166272
Results are given in words; binding and its absence hold for the method and conditions named. In cells and extracts the contact can be indirect. A yes stands for co-enrichment or nearness to the bait. Other partners may have been found. Tags and fused reporters may be left off the sequences shown.

Amino acid sequences for entries named in this document (tags omitted).
UniProt Q13547: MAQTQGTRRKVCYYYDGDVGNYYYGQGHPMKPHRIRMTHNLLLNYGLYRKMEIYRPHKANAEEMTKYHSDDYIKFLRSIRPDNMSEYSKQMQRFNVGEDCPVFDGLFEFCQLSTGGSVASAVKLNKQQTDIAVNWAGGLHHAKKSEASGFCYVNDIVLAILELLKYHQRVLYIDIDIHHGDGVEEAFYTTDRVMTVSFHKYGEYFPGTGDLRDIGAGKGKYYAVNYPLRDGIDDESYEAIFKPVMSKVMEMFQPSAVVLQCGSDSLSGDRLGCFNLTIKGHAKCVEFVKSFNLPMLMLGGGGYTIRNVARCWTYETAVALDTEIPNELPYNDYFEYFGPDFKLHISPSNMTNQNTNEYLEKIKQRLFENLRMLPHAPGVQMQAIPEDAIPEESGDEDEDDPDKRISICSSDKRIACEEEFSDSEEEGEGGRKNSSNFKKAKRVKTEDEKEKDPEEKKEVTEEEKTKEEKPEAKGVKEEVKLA

T1: FLAG-IRF7-K375R (UniProt Q92985)
T1 sequence: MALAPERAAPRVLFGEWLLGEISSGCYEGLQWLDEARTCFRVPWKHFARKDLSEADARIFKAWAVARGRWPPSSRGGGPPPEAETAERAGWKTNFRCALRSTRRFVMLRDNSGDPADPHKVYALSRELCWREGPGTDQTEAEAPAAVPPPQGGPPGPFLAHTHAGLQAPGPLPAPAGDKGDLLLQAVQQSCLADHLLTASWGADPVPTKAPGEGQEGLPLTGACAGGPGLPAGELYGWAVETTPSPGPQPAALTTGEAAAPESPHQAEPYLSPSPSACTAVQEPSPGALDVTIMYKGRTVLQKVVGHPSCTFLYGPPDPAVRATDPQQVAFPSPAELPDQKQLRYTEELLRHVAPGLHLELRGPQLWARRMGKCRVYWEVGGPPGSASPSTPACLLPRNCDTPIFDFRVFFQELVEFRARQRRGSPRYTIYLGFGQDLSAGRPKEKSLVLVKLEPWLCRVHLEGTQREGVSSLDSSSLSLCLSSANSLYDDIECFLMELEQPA

T2: FLAG-IRF7 (interferon regulatory factor 7, full-length) (UniProt Q92985)
T2 sequence: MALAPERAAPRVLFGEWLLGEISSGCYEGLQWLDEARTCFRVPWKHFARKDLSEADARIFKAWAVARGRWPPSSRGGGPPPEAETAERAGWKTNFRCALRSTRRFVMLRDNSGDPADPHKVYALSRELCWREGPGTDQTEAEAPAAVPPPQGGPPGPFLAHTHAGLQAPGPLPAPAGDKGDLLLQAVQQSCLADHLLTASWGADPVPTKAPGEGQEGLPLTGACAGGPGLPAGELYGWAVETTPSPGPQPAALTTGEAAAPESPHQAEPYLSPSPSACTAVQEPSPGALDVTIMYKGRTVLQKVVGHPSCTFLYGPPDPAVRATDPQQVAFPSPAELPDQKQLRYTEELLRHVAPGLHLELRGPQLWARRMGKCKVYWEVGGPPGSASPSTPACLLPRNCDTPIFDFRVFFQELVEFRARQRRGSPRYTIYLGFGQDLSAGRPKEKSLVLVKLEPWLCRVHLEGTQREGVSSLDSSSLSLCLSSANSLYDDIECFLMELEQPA

B1: NEURL3 (neuralized E3 ubiquitin-protein ligase 3), found by mass spectrometry in HEK293T (protein, UniProt Q96EH8 1-262)
chain: MGAQLCFEANAKAPREALRFHAEAKGAQVRLDTRGCIAHRRTTFHDGIVFSQRPVRLGERVALRVLREESGWCGGLRVGFTRLDPACVSVPSLPPFLCPDLEEQSPTWAAVLPEGCALTGDLVRFWVDRRGCLFAKVNAGCRLLLREGVPVGAPLWAVMDVYGTTKAIELLDPTASRLPTPMPWDLSNKAVPEPKATPGEECAICFYHAANTRLVPCGHTYFCRYCAWRVFSDTAKCPVCRWQIEAVAPAQGPPALRVEEGS

Assays:
FLAG-IRF7-K375R = target: T1, FLAG-IRF7-K375R; experiment: affinity purification with mass spectrom
[1] = target: T2, FLAG-IRF7 (interferon regulatory factor 7, full-length); experiment: affinity purification with mass spectrom

Row | binding (FLAG-IRF7-K375R) | binding [1] | Molecule
1 | binds |  | HDAC1 (histone deacetylase 1), found by mass spectrometry in HEK293T (from UniProt Q13547 1-482)
2 |  | binds | B1
